Drawing on publication PMC5538822, “RNA-dependent stabilization of SUV39H1 at constitutive heterochromatin”, this text covers binding for one substance.

By UniProt entry, the sequences of proteins in these tests, tags left out.
UniProt P45973: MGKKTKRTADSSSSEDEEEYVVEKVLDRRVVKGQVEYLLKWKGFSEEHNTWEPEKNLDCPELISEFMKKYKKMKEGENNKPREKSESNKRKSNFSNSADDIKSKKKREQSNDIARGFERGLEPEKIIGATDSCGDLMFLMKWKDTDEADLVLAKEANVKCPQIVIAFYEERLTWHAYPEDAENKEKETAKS

For one experiment, the target named is T1, SUV39H1-GFP (WT) (human) (UniProt O43463).
T1 sequence: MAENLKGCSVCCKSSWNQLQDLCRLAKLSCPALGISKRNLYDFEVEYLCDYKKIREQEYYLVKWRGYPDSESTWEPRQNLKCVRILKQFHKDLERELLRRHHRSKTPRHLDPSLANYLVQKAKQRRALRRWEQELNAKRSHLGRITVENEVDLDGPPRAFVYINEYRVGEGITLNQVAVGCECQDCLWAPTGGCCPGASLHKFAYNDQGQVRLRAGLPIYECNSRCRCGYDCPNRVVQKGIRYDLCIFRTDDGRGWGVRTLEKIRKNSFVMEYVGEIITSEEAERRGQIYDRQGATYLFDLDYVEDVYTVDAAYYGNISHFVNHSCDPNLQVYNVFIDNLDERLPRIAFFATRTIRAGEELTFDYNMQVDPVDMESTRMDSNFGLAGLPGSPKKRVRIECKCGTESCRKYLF
Briefly: co-IP; GFP-tagged SUV39H1 precipitated with anti-GFP nanobody sepharose from lysates of HeLa Flp-In T-REx cells crosslinked with 0.1% formaldehyde (RIP protocol, denaturing lysis buffer); western blot with anti-SUV39H1 and anti-HP1α.

Another experiment has as its target T2, SUV39H1^R55A-GFP (human) (UniProt O43463).
T2 sequence: T1 sequence with R55A
The description is as above.

Where a chain is given by its changes, count along the chain named. No constants are given. Whether binding was seen depends on the method and setting. Binding seen in cells or lysates may run through a third protein. Some results given as binding are weak or reduced against the parent protein; the word gives no strength. Where a sequence is shown, tags or fusion partners need not be part of it.

HP1α (from UniProt P45973 1-191): the binding entry with SUV39H1-GFP (WT) (human) and with SUV39H1^R55A-GFP (human) was “binds” in each case.
